# Laboratory results reported in publication PMC10701685.
# Chains of the proteins cited; added tags and fusions are not shown.
# UniProt O00193: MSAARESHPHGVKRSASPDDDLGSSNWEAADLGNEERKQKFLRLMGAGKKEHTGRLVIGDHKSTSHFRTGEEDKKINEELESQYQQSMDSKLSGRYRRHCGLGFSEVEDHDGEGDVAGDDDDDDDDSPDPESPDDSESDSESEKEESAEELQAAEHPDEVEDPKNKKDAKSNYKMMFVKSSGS
# Experiments:
# Assay in all cases: affinity purification with mass spectrometry; Strep/FLAG-tagged bait in lysate of transiently transfected HEK293T (1x TBS, 0.5% Nonidet-P40) on Strep-Tactin Superflow 1.5 h, three washes, Strep elution buffer; LC-MS/MS, label-free quantification, six biological replicates; Strep/FLAG-tagged RAF1 as control
# [1] = target: T1, Strep/FLAG-tagged TTC30A wildtype (human) (UniProt Q86WT1)
# T1 sequence: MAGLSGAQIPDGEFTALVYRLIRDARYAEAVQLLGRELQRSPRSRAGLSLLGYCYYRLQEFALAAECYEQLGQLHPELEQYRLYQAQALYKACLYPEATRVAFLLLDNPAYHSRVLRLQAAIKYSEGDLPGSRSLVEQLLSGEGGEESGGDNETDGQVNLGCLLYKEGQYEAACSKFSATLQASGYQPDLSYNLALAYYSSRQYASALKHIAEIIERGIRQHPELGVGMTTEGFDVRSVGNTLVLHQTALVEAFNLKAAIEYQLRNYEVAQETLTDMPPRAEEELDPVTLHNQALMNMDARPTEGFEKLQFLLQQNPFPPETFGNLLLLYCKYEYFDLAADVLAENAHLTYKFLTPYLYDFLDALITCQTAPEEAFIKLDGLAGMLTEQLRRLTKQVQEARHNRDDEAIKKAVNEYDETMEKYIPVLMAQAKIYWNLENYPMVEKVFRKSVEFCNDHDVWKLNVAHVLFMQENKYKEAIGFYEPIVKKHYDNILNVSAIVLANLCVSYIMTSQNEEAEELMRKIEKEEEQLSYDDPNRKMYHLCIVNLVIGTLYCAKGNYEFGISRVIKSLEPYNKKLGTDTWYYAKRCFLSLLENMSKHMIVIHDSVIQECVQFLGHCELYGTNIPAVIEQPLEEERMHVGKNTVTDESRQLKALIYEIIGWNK
# [2] = target: T2, Strep/FLAG-tagged TTC30A A375V (human) (UniProt Q86WT1)
# T2 sequence: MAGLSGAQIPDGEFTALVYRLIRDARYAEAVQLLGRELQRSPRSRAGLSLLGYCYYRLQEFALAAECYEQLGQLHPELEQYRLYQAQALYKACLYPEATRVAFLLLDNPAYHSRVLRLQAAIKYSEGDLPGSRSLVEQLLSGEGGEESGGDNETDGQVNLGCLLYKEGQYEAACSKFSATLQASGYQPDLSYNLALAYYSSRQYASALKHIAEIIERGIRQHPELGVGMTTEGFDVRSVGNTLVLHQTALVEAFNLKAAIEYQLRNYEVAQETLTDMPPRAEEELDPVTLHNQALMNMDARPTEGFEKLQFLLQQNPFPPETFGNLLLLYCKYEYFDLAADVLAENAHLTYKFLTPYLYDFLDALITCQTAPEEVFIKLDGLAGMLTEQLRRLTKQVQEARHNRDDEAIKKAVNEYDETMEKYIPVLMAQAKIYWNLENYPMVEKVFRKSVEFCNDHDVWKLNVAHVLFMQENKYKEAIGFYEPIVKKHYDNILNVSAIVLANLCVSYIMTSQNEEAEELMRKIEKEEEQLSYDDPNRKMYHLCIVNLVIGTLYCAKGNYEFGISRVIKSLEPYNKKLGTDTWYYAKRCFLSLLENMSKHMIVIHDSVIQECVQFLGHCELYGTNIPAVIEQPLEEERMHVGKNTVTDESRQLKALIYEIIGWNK
# [3] = target: T3, Strep/FLAG-tagged TTC30B wildtype (human) (UniProt Q8N4P2)
# T3 sequence: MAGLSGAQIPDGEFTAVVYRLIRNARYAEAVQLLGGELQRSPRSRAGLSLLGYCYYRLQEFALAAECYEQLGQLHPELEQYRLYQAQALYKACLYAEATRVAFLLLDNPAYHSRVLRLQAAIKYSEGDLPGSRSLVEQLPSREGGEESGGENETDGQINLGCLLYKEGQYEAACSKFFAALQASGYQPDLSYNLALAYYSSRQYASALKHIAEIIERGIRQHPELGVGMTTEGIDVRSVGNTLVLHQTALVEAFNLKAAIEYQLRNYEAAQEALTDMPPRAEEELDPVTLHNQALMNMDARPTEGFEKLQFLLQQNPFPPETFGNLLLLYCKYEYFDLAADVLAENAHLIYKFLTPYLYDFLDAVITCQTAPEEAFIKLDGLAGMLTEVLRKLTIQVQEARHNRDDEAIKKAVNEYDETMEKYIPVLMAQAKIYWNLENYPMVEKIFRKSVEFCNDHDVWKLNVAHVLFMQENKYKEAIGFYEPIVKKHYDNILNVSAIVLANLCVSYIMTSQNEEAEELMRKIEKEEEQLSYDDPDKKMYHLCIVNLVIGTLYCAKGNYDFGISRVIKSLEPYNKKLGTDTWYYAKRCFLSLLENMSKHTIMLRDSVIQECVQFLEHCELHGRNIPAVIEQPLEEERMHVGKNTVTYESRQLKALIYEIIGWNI
molecule,measurement,setting,value
SMAP (from UniProt O00193 1-183),binding,[1],binds
same,binding,[2],binds
same,binding,[3],binds
"RNPS1 (protein, UniProt Q15287 1-305) MDLSGVKKKSLLGVKENNKKSSTRAPSPTKRKDRSDEKSKDRSKDKGATKESSEKDRGRDKTRKRRSASSGSSSTRSRSSSTSSSGSSTSTGSSSGSSSSSASSRSGSSSTSRSSSSSSSSGSPSPSRRRHDNRRRSRSKSKPPKRDEKERKRRSPSPKPTKVHIGRLTRNVTKDHIMEIFSTYGKIKMIDMPVERMHPHLSKGYAYVEFENPDEAEKALKHMDGGQIDGQEITATAVLAPWPRPPPRRFSPPRRMLPPPPMWRRSPPRMRRRSRSPRRRSPVRRRSRSPGRRRHRSRSSSNSSR",binding,[1],binds
same,binding,[2],binds
same,binding,[3],binds
"HEATR3 (protein, UniProt Q7Z4Q2 1-680) MGKSRTKRFKRPQFSPTGDCQAEAAAAANGTGGEEDDGPAAELLEKLQHPSAEVRECACAGLARLVQQRPALPGLARRDAVRRLGPLLLDPSLAVRETAAGALRNLSACGGFEVCDDMVTKDIMTPLVALLKECSAGLDSNEMSLQEKKDQNRNSIENIANETVNVLWNICECSSRAVSIFNKEGCLEIVLKYLSRFPTNVDLAISVAYCLQTVTEDNPELLKSFSATALNMLESALLSPVSSMESLLLKTLVAGTIWNLKDIIPCKSQAEIINALLKILSEVLGMDAGEMVIQMKEAETQRLKTAAEAEEILENTNGDDLIEDDEMEGISHKRRVRRKTFVSDLLPPTDKELRETIALLTAQQTALEIIVNMCCNEDPSDDEWEELSSSDESDAFMENSFSECGGQLFSPLCLSHEVHTALTNYLIPKKIFEKTAFPNSIAVDLCSRNPTWKPLIRKMNTIQCRALFCLQSLVSLLDVEHLGGAAALQTLAQHLSQLLFSQPDFAKHVDFLEAISSALRALLQTMASKNISQCMTPDQLMTLCKAGIHSSNVGVRVNVVSILGITGSVLAKEDGTLETLKNIGCFLLEVTTKDPSLVVAGEALDALFDVFADGKEAERASIQIKLLSALKEFQPVFKMKIRKEGRGNYSTDQLCVLDNVKMNLRRFIAYQETVEKRLTS",binding,[1],binds
same,binding,[2],binds

# Results are given in words; binding and its absence hold for the method and conditions named. Binding seen in cells or lysates may run through a third protein. A yes stands for co-enrichment or nearness to the bait. Other partners may have been found. Sequences can lack the tags named with a protein.
